Data as given in PubChem BioAssay AID1259424 (University of Nebraska Medical Center, 2018).
Purpose: 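Seek colon cancer survival genes behaving like KSR1, using a six-gene signature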 (primary screen). System: human HCT116 colon cancer cells. Reagents: siRNA pool against human genes, 50 nM. Read-out: 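Six signature mRNAs by branched-DNA multiplex assay, scaled to two housekeeping genes and non-targeting median, log2; matched to mean KSR1 knockdown profile by Pearson correlation and euclidean distance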. Direction: mean correlation with KSR1 profile and KSR1 correlation: higher = expression change more like KSR1 knockdown; mean distance from KSR1 profile: higher = expression change less like KSR1 knockdown.
The deposit covers about 14,000 reagents; shown is an unselected part. 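Higher correlation or smaller distance means closer resemblance to KSR1 loss; control wells, including KSR1 knockdowns, recur on many plates.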 The record does not give: the time to read-out.

| gene | mean correlation with KSR1 profile | mean distance from KSR1 profile | KSR1 correlation, replicate 1 | KSR1 correlation, replicate 2 | KSR1 correlation, replicate 3 |
| --- | --- | --- | --- | --- | --- |
| ALAS1 | -0.0527 | 2.37 | 0.202 | -0.444 | -0.125 |
| TOX4 | -0.245 | 1.61 | -0.347 | -0.262 | 0.0765 |
| CTDSPL2 | 0.0534 | 1.45 | 0.0718 | 0.0609 | -0.00328 |
| NCF4 | 0.0336 | 2.4 | 0.167 | 0.124 | -0.00534 |
| ZSCAN2 | -0.453 | 2.78 | -0.605 | -0.564 | -0.474 |
| TRPM3 | -0.221 | 2.17 | 0.0164 | -0.202 | -0.19 |
| RITA1 | 0.258 | 2.73 | 0.177 | 0.143 | 0.0445 |
| PTGFR | 0.972 | 1.64 | 0.965 | 0.987 | 0.92 |
| HTN1 | 0.149 | 1.26 | -0.24 | 0.406 | 0.438 |
| SIVA1 | 0.586 | 3.75 | 0.526 | 0.463 | 0.621 |
| TREML2 | 0.497 | 2.65 | 0.581 | 0.652 | 0.309 |
| PLS1 | 0.635 | 0.659 | 0.679 | 0.741 | 0.2 |
| VMA22 | 0.494 | 1.57 | 0.374 | 0.483 | 0.441 |
| DHX16 | -0.357 | 1.63 | -0.412 | -0.461 | -0.259 |
| MED20 | -0.305 | 2.67 | -0.392 | -0.15 | -0.245 |
| SELENON | 0.679 | 2.05 | 0.218 | 0.518 | 0.362 |
| TBX21 | 0.479 | 1.69 | 0.632 | 0.0826 | 0.62 |
| HNRNPF | -0.101 | 2.47 | -0.0336 | -0.248 | -0.0211 |
| MYL11 | -0.717 | 2.64 | -0.634 | -0.649 | -0.806 |
| IL23R | -0.534 | 3.13 | -0.62 | -0.512 | -0.535 |
| BNC2 | 0.0602 | 2.05 | -0.0396 | 0.0511 | 0.0944 |
| FLT4 | 0.282 | 3.31 | 0.456 | -0.0358 | 0.041 |
| OR2H1 | 0.852 | 2.65 | 0.791 | 0.885 | 0.922 |
| PLXNB1 | -0.403 | 2.59 | -0.652 | 0.091 | -0.505 |
| MYOM1 | -0.396 | 3.77 | -0.242 | -0.393 | -0.538 |
| GAL3ST4 | 0.147 | 3.2 | 0.156 | 0.167 | 0.19 |
| SIX6 | 0.483 | 1.92 | 0.594 | 0.535 | 0.431 |
| LHPP | -0.0901 | 3.19 | -0.135 | -0.0647 | -0.176 |

Next part; the last 3 above are carried over.
| gene | mean correlation with KSR1 profile | mean distance from KSR1 profile | KSR1 correlation, replicate 1 | KSR1 correlation, replicate 2 | KSR1 correlation, replicate 3 |
| --- | --- | --- | --- | --- | --- |
| GAL3ST4 | 0.147 | 3.2 | 0.156 | 0.167 | 0.19 |
| SIX6 | 0.483 | 1.92 | 0.594 | 0.535 | 0.431 |
| LHPP | -0.0901 | 3.19 | -0.135 | -0.0647 | -0.176 |
| SUMO2 | 0.443 | 1.76 | 0.605 | 0.348 | 0.333 |
| KRTAP1-1 | 0.484 | 2.28 | 0.314 | 0.466 | 0.403 |
| UBXN7 | -0.0766 | 2.05 | -0.18 | -0.112 | -0.0885 |
| STK33 | 0.278 | 1.85 | 0.639 | 0.0183 | 0.131 |
| HERPUD1 | -0.167 | 2.27 | -0.302 | -0.323 | -0.332 |
| ITGA3 | 0.244 | 0.984 | 0.161 | 0.19 | 0.473 |
| LIMS2 | -0.394 | 1.8 | -0.613 | -0.365 | -0.564 |
| PIWIL2 | 0.102 | 2.19 | -0.256 | 0.148 | 0.0337 |
| BOK | 0.098 | 1.51 | 0.168 | -0.134 | 0.138 |
| PLEKHF1 | 0.16 | 2.58 | 0.0501 | 0.103 | 0.299 |
| ELAPOR1 | -0.144 | 3.15 | -0.37 | -0.148 | 0.209 |
| LHX3 | 0.414 | 1.12 | 0.562 | 0.369 | 0.551 |
| SLC25A10 | 0.281 | 1.67 | 0.369 | 0.271 | 0.101 |
| PPP1R3D | -0.0759 | 2.77 | 0.0321 | -0.347 | -0.031 |
| EPM2AIP1 | -0.244 | 2.4 | -0.0442 | -0.553 | -0.0569 |
| SHC2 | -0.249 | 1.91 | -0.338 | -0.177 | -0.101 |
| SNRPA1 | -0.436 | 3.09 | -0.503 | -0.258 | -0.437 |
| ZBBX | 0.0292 | 2.84 | 0.0231 | -0.0168 | 0.151 |
| CXCL16 | -0.453 | 2.62 | -0.521 | -0.346 | -0.548 |
| PRELID3B | 0.263 | 1.38 | 0.337 | 0.32 | 0.334 |
| ZPBP | -0.227 | 1.12 | 0.0458 | -0.383 | -0.461 |
| RBKS | 0.631 | 0.972 | 0.789 | -0.108 | 0.702 |
